Data taken from patent US20210340217A1, “NOVEL PEPTIDES AND COMBINATION OF PEPTIDES FOR USE IN IMMUNOTHERAPY AGAINST OVARIAN CANCER AND OTHER CANCERS” (Immatics Biotechnologies GmbH, priority 2017, published 2021).

These substances were tested on ovarian cancer tissue samples (assay: Identification of tumor associated peptides presented on the cell surface (HLA immunoprecipitation, LC-MS); presentation across tumor types). Conditions: tumor types on which the peptide was found presented (HLA immunoprecipitation, LC-MS); abbreviations in table footnote.
Set-up: species or system human

Substance | Peptide Presentation on tumor types
241 (RQPNILVHL; listed as Homo sapiens) [compound 241] | UEC
399 (RELLHLVTL; listed as Homo sapiens) [compound 399] | NSCLC, SCLC, UEC
599 (AESLFREALSNKVDE; listed as Homo sapiens) [compound 599] | NSCLC
637 (ALRGLLPVLGQPIIR; listed as Homo sapiens) [compound 637] | NSCLC
117 (APRLLLLAVL; listed as Homo sapiens) [compound 117] | BRCA, CRC, HNSCC, MEL, NSCLC, OSCAR, PRCA, RCC, SCLC, UBC, UEC
369 (FPHSEMTTV; listed as Homo sapiens) [compound 369] | PACA, UEC
460 (RLSSATANALY; listed as Homo sapiens) [compound 460] | GBC
407 (AEHEGVSVL; listed as Homo sapiens) [compound 407] | NSCLC, UEC
593 (GEVAPDAKSFVLNLG; listed as Homo sapiens) [compound 593] | NSCLC, RCC
275 (STTFPTLTK; listed as Homo sapiens) [compound 275] | UEC
638 (LRGLLPVLGQPIIRS; listed as Homo sapiens) [compound 638] | NSCLC
331 (FPHPEMTTSM; listed as Homo sapiens) [compound 331] | UEC
125 (VPVYILLDEM; listed as Homo sapiens) [compound 125] | CCC, GC, HNSCC, UEC
503 (TVFDKAFTAA; listed as Homo sapiens) [compound 503] | NSCLC
318 (FPNRLNLEA; listed as Homo sapiens) [compound 318] | CCC, CLL, GC, HNSCC, MEL, NSCLC, PRCA, RCC, SCLC, UBC
245 (LAVEGGQSL; listed as Homo sapiens) [compound 245] | AML, BRCA, CCC, CRC, GBC, GBM, GC, GEJC, HCC, HNSCC, MEL, NHL, NSCLC, OSCAR, PACA, PRCA, RCC, SCLC, UBC, UEC
106 (AAFVPLLLK; listed as Homo sapiens) [compound 106] | AML, BRCA, NHL, NSCLC, SCLC
228 (RLWDWVPLA; listed as Homo sapiens) [compound 228] | AML, NHL
20 (RMASPVNVK; listed as Homo sapiens) [compound 20] | CLL
319 (SPAEPSVYATL; listed as Homo sapiens) [compound 319] | BRCA, GC, NSCLC, OSCAR
75 (KVVSVLYNV; listed as Homo sapiens) [compound 75] | BRCA, UEC
472 (MRLLVAPL; listed as Homo sapiens) [compound 472] | SCLC, UEC
488 (RSFSLGVPR; listed as Homo sapiens) [compound 488] | AML, CLL, GC, HCC, HNSCC, NHL, NSCLC, PRCA, SCLC, UEC
337 (HPVETSSAL; listed as Homo sapiens) [compound 337] | UEC
448 (LSQKGYSW; listed as Homo sapiens) [compound 448] | NHL, NSCLC, UBC

Substance | Peptide Presentation on tumor types
152 (MGSARVAEL; listed as Homo sapiens) [compound 152] | HNSCC
615 (VAEVQKLLGPHVEGLK; listed as Homo sapiens) [compound 615] | NSCLC
5 (RLLDFINVL; listed as Homo sapiens) [compound 5] | UEC
425 (SEVPLPMAI; listed as Homo sapiens) [compound 425] | NSCLC, UEC
64 (FLDPDRHFL; listed as Homo sapiens) [compound 64] | BRCA, CCC, CRC, GBC, GC, GEJC, HCC, HNSCC, MEL, NSCLC, OSCAR, PACA, PRCA, RCC, SCLC, UBC, UEC
237 (SAMGTISIM; listed as Homo sapiens) [compound 237] | UEC
507 (TSIFSGQSL; listed as Homo sapiens) [compound 507] | UEC
281 (RAKELEATF; listed as Homo sapiens) [compound 281] | CLL, GC, NSCLC
57 (QESDLRLFL; listed as Homo sapiens) [compound 57] | BRCA, CLL, CRC, GC, GEJC, HNSCC, NHL, NSCLC, PACA, UBC, UEC
549 (ARSKLQQGL; listed as Homo sapiens) [compound 549] | MEL
418 (FEDAQGHIW; listed as Homo sapiens) [compound 418] | BRCA, CCC, CRC, HCC, NSCLC, OSCAR, PACA, UBC, UEC
259 (KTLELRVAY; listed as Homo sapiens) [compound 259] | GBC, HNSCC
541 (RLSPAPLKL; listed as Homo sapiens) [compound 541] | GBM, NSCLC
654 (PVLGQPIIRSIPQGIVA; listed as Homo sapiens) [compound 654] | GC, NSCLC
635 (ALRGLLPVLGQPIIRS; listed as Homo sapiens) [compound 635] | NSCLC
498 (EVYPELGTQGR; listed as Homo sapiens) [compound 498] | UEC
215 (SEDGLPEGIHL; listed as Homo sapiens) [compound 215] | CLL, GC, GEJC, HNSCC, NHL, NSCLC, PACA
235 (SAIETSAVL; listed as Homo sapiens) [compound 235] | NSCLC, UEC
295 (YPLRGSSIFGL; listed as Homo sapiens) [compound 295] | UEC
547 (EVNKPGVYTR; listed as Homo sapiens) [compound 547] | HCC, UEC
405 (NEIWTHSY; listed as Homo sapiens) [compound 405] | NSCLC, UEC
151 (HLLLKVLAF; listed as Homo sapiens) [compound 151] | HNSCC
24 (SMYYPLQLK; listed as Homo sapiens) [compound 24] | BRCA, CRC, GBM, HCC, NHL, RCC
545 (RVGPPLLI; listed as Homo sapiens) [compound 545] | BRCA, CRC, NSCLC, OSCAR, UEC
474 (AADGGLRASVTL; listed as Homo sapiens) [compound 474] | BRCA, NSCLC, OSCAR

Substance | Peptide Presentation on tumor types
86 (VVLLGSLFSRK; listed as Homo sapiens) [compound 86] | AML, CRC, GC, HCC, PACA, RCC
610 (LTVAEVQKLLGPHVEGLK; listed as Homo sapiens) [compound 610] | NSCLC
326 (VPSEIDAAF; listed as Homo sapiens) [compound 326] | BRCA, CCC, CRC, GBC, GC, NSCLC, OSCAR, PACA, RCC, SCLC, UEC
14 (FYFPTPTVL; listed as Homo sapiens) [compound 14] | GBC, NSCLC
179 (REAGDEFEL; listed as Homo sapiens) [compound 179] | CCC, NSCLC, SCLC
648 (GLLPVLGQPIIRSIPQGIVAA; listed as Homo sapiens) [compound 648] | NSCLC
35 (FPDNQRPAL; listed as Homo sapiens) [compound 35] | BRCA, CRC, GBC, MEL, NSCLC, PACA, UBC, UEC
124 (LPSDSHFKITF; listed as Homo sapiens) [compound 124] | CRC, HNSCC, NHL, OSCAR, SCLC
458 (TDTLIHLM; listed as Homo sapiens) [compound 458] | UEC
668 (AVLPLTVAEVQK; listed as Homo sapiens) [compound 668] | BRCA, CRC, GBC, GC, NSCLC, PACA, UEC
325 (GPRNAQRVL; listed as Homo sapiens) [compound 325] | CRC, GBC, NHL, NSCLC
404 (NEAIMHQY; listed as Homo sapiens) [compound 404] | BRCA, CCC, CLL, CRC, GBC, GC, HCC, MEL, NHL, NSCLC, OSCAR, SCLC, UBC, UEC
443 (GTFNPVSLW; listed as Homo sapiens) [compound 443] | BRCA, GBC, GBM, HNSCC, MEL, NHL, NSCLC, OSCAR, PACA, SCLC
208 (TEVSRTEAI; listed as Homo sapiens) [compound 208] | NSCLC, UEC
415 (REEDAALFKAW; listed as Homo sapiens) [compound 415] | BRCA, CLL, CRC, HCC, HNSCC, MEL, NHL, NSCLC, OSCAR, PRCA, UBC, UEC
509 (GRGPGGVSW; listed as Homo sapiens) [compound 509] | NSCLC
544 (LRNPSIQKL; listed as Homo sapiens) [compound 544] | GBM
393 (ASKPHVEI; listed as Homo sapiens) [compound 393] | CRC
616 (TVAEVQKLLGPHVEG; listed as Homo sapiens) [compound 616] | NSCLC
423 (SEVPTGTTA; listed as Homo sapiens) [compound 423] | GBC, GBM
608 (LTVAEVQKLLGPHVEGLKAE; listed as Homo sapiens) [compound 608] | NSCLC
116 (VLLDEGAMLLY; listed as Homo sapiens) [compound 116] | NSCLC, PACA
491 (EAYSSTSSW; listed as Homo sapiens) [compound 491] | GBC, UEC
677 (IWAVRPQDLDTCDPR; listed as Homo sapiens) [compound 677] | NSCLC
306 (APVIFSHSA; listed as Homo sapiens) [compound 306] | AML, CCC, HCC, MEL, NSCLC, UBC
